Measurements reported in PubChem BioAssay AID1224830 (NIAID, 2016)

- Test: 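Regulators of TLR4 signalling towards TNF-alpha in macrophage-like cells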 (primary screen)
- System: human THP-1 monocytic leukaemia cells, TNF dual-luciferase reporter clone, PMA-differentiated to macrophage-like cells
- Reagents: siRNA pool against human genes, 50 nM
- Time to read-out: LPS for 4 h, given about 3 days after siRNA transfection
- Treatment: bacterial LPS (TLR4 ligand), 10 ng/ml
- Detection: 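Ratio of firefly to renilla light, scaled to the plate median and expressed as a robust z-score per replicate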
- Reading the numbers: TNF reporter robust z-score: higher = stronger TNF reporter response to LPS
- Rule for the call: 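Each well counts as active if its z-score is over 2.8 or under -1.5; controls are left without a call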
The whole screen tested about 18,000 reagents; this is an unselected part. In the full data, about 2,900 (16%) were called active. 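Calls are made per well; low scores hint the gene aids the LPS response, high scores that it dampens it.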 Repeated entries: four replicate wells of each siRNA pool.

After knock-down of ZNF573, the record shows TNF reporter robust z-score 2.83; active.
ZNF573 scored TNF reporter robust z-score -0.51; inactive.
Against ZNF573 the deposit lists TNF reporter robust z-score -1.35; inactive.
With knock-down of ZNF573, the record shows TNF reporter robust z-score -0.29; inactive.
After knock-down of WDR64, the record shows TNF reporter robust z-score 0.47; inactive.
For WDR64, the values are TNF reporter robust z-score -0.27; inactive.
For WDR64 the deposit lists TNF reporter robust z-score -0.01; inactive.
WDR64 showed TNF reporter robust z-score -0.16; inactive.
Depletion of ACOT7 resulted in: TNF reporter robust z-score -0.2; inactive.
ACOT7 scored TNF reporter robust z-score 0.42; inactive.
ACOT7 showed TNF reporter robust z-score -0.1; inactive.
After knock-down of ACOT7, the record shows TNF reporter robust z-score 0.65; inactive.
Knock-down of SPRR4 resulted in: TNF reporter robust z-score -0.84; inactive.
Silencing of SPRR4 came out at: TNF reporter robust z-score 0.2; inactive.
SPRR4 gave TNF reporter robust z-score 0.32; inactive.
Against SPRR4 the deposit lists TNF reporter robust z-score 1.35; inactive.
PRF1 showed TNF reporter robust z-score -0.09; inactive.
Against PRF1 the deposit lists TNF reporter robust z-score 0.44; inactive.
Silencing of PRF1 came out at: TNF reporter robust z-score 0.63; inactive.
PRF1 showed TNF reporter robust z-score 1.04; inactive.
Depletion of INTS5 came out at: TNF reporter robust z-score 1.5; inactive.
Knock-down of INTS5 resulted in: TNF reporter robust z-score 1.69; inactive.
With knock-down of INTS5, the record shows TNF reporter robust z-score 0.3; inactive.
After knock-down of INTS5, the screen gave TNF reporter robust z-score 1.08; inactive.
ANGPTL4 scored TNF reporter robust z-score -1.35; inactive.
Against ANGPTL4, the entry reads TNF reporter robust z-score 0.29; inactive.
After knock-down of ANGPTL4 the results were TNF reporter robust z-score 0.12; inactive.
Against ANGPTL4 the deposit lists TNF reporter robust z-score 1.03; inactive.
PYGB gave TNF reporter robust z-score 1.26; inactive.
Depletion of PYGB came out at: TNF reporter robust z-score 1.48; inactive.
PYGB gave TNF reporter robust z-score 0.8; inactive.
For PYGB the deposit lists TNF reporter robust z-score 1.24; inactive.
IVD scored TNF reporter robust z-score -1.26; inactive.
Silencing of IVD resulted in: TNF reporter robust z-score -1.01; inactive.
After knock-down of IVD the results were TNF reporter robust z-score -1.31; inactive.
Silencing of IVD came out at: TNF reporter robust z-score -0.83; inactive.
For PFN1, the entry reads TNF reporter robust z-score -1.24; inactive.
For PFN1, the entry reads TNF reporter robust z-score 0.06; inactive.
With knock-down of PFN1 the results were TNF reporter robust z-score -1.06; inactive.
With knock-down of PFN1, the record shows TNF reporter robust z-score -1.35; inactive.
Silencing of ERP44 gave: TNF reporter robust z-score -0.44; inactive.
With knock-down of ERP44, the record shows TNF reporter robust z-score 0.74; inactive.
For ERP44, the entry reads TNF reporter robust z-score -0.38; inactive.
After knock-down of ERP44 the results were TNF reporter robust z-score -0.39; inactive.
Silencing of LSM6 came out at: TNF reporter robust z-score -1.41; inactive.
Against LSM6, the entry reads TNF reporter robust z-score -0.98; inactive.
Depletion of LSM6 gave: TNF reporter robust z-score -1.27; inactive.
Silencing of LSM6 gave: TNF reporter robust z-score -1.71; active.
